# Assay results reported in the supplement of paper PMC8728848.
# The other results are listed elsewhere or left out.
# How the values were obtained:
# Experiment in all cases: glycan array binding signal (z-score within array); higher = stronger binding
# Details in all cases: glycan notation: IUPAC condensed, linker removed
# [1] = molecular target: Gal(b1-3)[Fuc(a1-4)]GlcNAc(b1-6)GalNAc
# In short: (§1)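 Negative Z-scores can be read as non-binding. The Z-score is calculated within each array and then averaged across arrays of one protein sequence at different concentrations or buffers and across linkers. Arrays, 3228 in all, were curated from the Consortium for Functional Glycomics database and kept only where the protein sequence was available.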
# [2] = molecular target: Gal(b1-3)[GlcNAc(b1-6)]GalNAc
# In short: as §1
# [3] = molecular target: Gal(b1-3)[Neu5Ac(a2-6)]GalNAc
# In short: as §1
# [4] = molecular target: Gal(b1-3)[Neu5Ac(a2-6)]GlcNAc(b1-4)Gal(b1-4)Glc
# In short: as §1
# [5] = molecular target: Gal(b1-3)[Neu5Ac(b2-6)]GalNAc
# In short: as §1
# Gal(b1-4)Gal = molecular target: Gal(b1-4)Gal
# In short: as §1
# [6] = molecular target: Gal(b1-4)GalNAc(a1-3)[Fuc(a1-2)]Gal(b1-4)GlcNAc
# In short: as §1
# [7] = molecular target: Gal(b1-4)GalNAc(b1-3)[Fuc(a1-2)]Gal(b1-4)GlcNAc
# In short: as §1
# Gal(b1-4)Glc = molecular target: Gal(b1-4)Glc
# In short: as §1
# Gal(b1-4)Glc6S = molecular target: Gal(b1-4)Glc6S
# In short: as §1
# Gal(b1-4)GlcNAc = molecular target: Gal(b1-4)GlcNAc
# In short: as §1
# [8] = molecular target: Gal(b1-4)GlcNAc(a1-6)Gal(b1-4)GlcNAc
# In short: as §1
# Gal(b1-4)GlcNAc(b1-2)Man = molecular target: Gal(b1-4)GlcNAc(b1-2)Man
# In short: as §1
# [9] = molecular target: Gal(b1-4)GlcNAc(b1-2)Man(a1-3)Man(b1-4)GlcNAc(b1-4)GlcNAc
# In short: as §1
# [10] = molecular target: Gal(b1-4)GlcNAc(b1-2)Man(a1-3)[Gal(b1-4)GlcNAc(b1-2)Man(a1-6)]Man(b1-4)GlcNAc(b1-4)GlcNAc
# In short: as §1
# [11] = molecular target: Gal(b1-4)GlcNAc(b1-2)Man(a1-3)[Gal(b1-4)GlcNAc(b1-2)Man(a1-6)]Man(b1-4)GlcNAc(b1-4)[Fuc(a1-6)]GlcNAc
# In short: as §1
# [12] = molecular target: Gal(b1-4)GlcNAc(b1-2)Man(a1-3)[Gal(b1-4)GlcNAc(b1-2)Man(a1-6)][Gal(b1-4)GlcNAc(b1-4)]Man(b1-4)GlcNAc(b1-4)[Fuc(a1-6)]GlcNAc
# In short: as §1
# [13] = molecular target: Gal(b1-4)GlcNAc(b1-2)Man(a1-3)[Gal(b1-4)GlcNAc(b1-2)Man(a1-6)][GlcNAc(b1-4)]Man(b1-4)GlcNAc(b1-4)[Fuc(a1-6)]GlcNAc
# In short: as §1
# [14] = molecular target: Gal(b1-4)GlcNAc(b1-2)Man(a1-3)[GlcNAc(b1-2)Man(a1-6)]Man(b1-4)GlcNAc(b1-4)GlcNAc
# In short: as §1
# [15] = molecular target: Gal(b1-4)GlcNAc(b1-2)Man(a1-3)[GlcNAc(b1-4)][Gal(b1-4)GlcNAc(b1-2)Man(a1-6)]Man(b1-4)GlcNAc(b1-4)GlcNAc
# In short: as §1
# [16] = molecular target: Gal(b1-4)GlcNAc(b1-2)Man(a1-3)[Man(a1-6)]Man(b1-4)GlcNAc(b1-4)GlcNAc
# In short: as §1
# [17] = molecular target: Gal(b1-4)GlcNAc(b1-2)Man(a1-6)Man(b1-4)GlcNAc(b1-4)GlcNAc
# In short: as §1
# [18] = molecular target: Gal(b1-4)GlcNAc(b1-2)Man(a1-6)[GlcNAc(b1-2)Man(a1-3)]Man(b1-4)GlcNAc(b1-4)GlcNAc
# In short: as §1
# [19] = molecular target: Gal(b1-4)GlcNAc(b1-2)Man(a1-6)[Man(a1-3)]Man(b1-4)GlcNAc(b1-4)GlcNAc
# In short: as §1
# [20] = molecular target: Gal(b1-4)GlcNAc(b1-2)[Gal(b1-4)GlcNAc(b1-4)]Man(a1-3)[Gal(b1-4)GlcNAc(b1-2)Man(a1-6)]Man(b1-4)GlcNAc(b1-4)GlcNAc
# In short: as §1
# [21] = molecular target: Gal(b1-4)GlcNAc(b1-2)[Gal(b1-4)GlcNAc(b1-4)]Man(a1-3)[Gal(b1-4)GlcNAc(b1-2)[Gal(b1-4)GlcNAc(b1-6)]Man(a1-6)]Man(b1-4)GlcNAc(b1-4)GlcNAc
# In short: as §1
# [22] = molecular target: Gal(b1-4)GlcNAc(b1-2)[Gal(b1-4)GlcNAc(b1-4)]Man(a1-3)[GlcNAc(b1-4)][Gal(b1-4)GlcNAc(b1-2)Man(a1-6)]Man(b1-4)GlcNAc(b1-4)GlcNAc
# In short: as §1
# [23] = molecular target: Gal(b1-4)GlcNAc(b1-2)[Gal(b1-4)GlcNAc(b1-4)]Man(a1-3)[GlcNAc(b1-4)][Gal(b1-4)GlcNAc(b1-2)[Gal(b1-4)GlcNAc(b1-6)]Man(a1-6)]Man(b1-4)GlcNAc(b1-4)GlcNAc
# In short: as §1
# [24] = molecular target: Gal(b1-4)GlcNAc(b1-2)[Gal(b1-4)GlcNAc(b1-6)]Man(a1-6)[Gal(b1-4)GlcNAc(b1-2)Man(a1-3)]Man(b1-4)GlcNAc(b1-4)GlcNAc
# In short: as §1
# [25] = molecular target: Gal(b1-4)GlcNAc(b1-2)[Gal(b1-4)GlcNAc(b1-6)]Man(a1-6)[Gal(b1-4)GlcNAc(b1-2)Man(a1-3)]Man(b1-4)GlcNAc(b1-4)[Fuc(a1-6)]GlcNAc
# In short: as §1
# [26] = molecular target: Gal(b1-4)GlcNAc(b1-2)[Gal(b1-4)GlcNAc(b1-6)]Man(a1-6)[GlcNAc(b1-4)][Gal(b1-4)GlcNAc(b1-2)Man(a1-3)]Man(b1-4)GlcNAc(b1-4)GlcNAc
# In short: as §1
# [27] = molecular target: Gal(b1-4)GlcNAc(b1-2)[Gal(b1-4)GlcNAc(b1-6)]Man(a1-6)[GlcNAc(b1-4)][Gal(b1-4)GlcNAc(b1-2)[Gal(b1-4)GlcNAc(b1-4)]Man(a1-3)]Man(b1-4)GlcNAc(b1-4)[Fuc(a1-6)]GlcNAc
# In short: as §1
# [28] = molecular target: Gal(b1-4)GlcNAc(b1-3)Gal(b1-3)GalNAc
# In short: as §1
# [29] = molecular target: Gal(b1-4)GlcNAc(b1-3)Gal(b1-3)GlcNAc
# In short: as §1
# [30] = molecular target: Gal(b1-4)GlcNAc(b1-3)Gal(b1-4)Glc
# In short: as §1
# [31] = molecular target: Gal(b1-4)GlcNAc(b1-3)Gal(b1-4)GlcNAc
# In short: as §1
# [32] = molecular target: Gal(b1-4)GlcNAc(b1-3)Gal(b1-4)GlcNAc(b1-2)Man(a1-3)[Gal(b1-4)GlcNAc(b1-3)Gal(b1-4)GlcNAc(b1-2)Man(a1-6)]Man(b1-4)GlcNAc(b1-4)GlcNAc
# In short: as §1
# [33] = molecular target: Gal(b1-4)GlcNAc(b1-3)Gal(b1-4)GlcNAc(b1-2)Man(a1-3)[Gal(b1-4)GlcNAc(b1-3)Gal(b1-4)GlcNAc(b1-2)Man(a1-6)]Man(b1-4)GlcNAc(b1-4)[Fuc(a1-6)]GlcNAc
# In short: as §1
binder,measurement,setting,value
B3GalT2 (Rattus norvegicus) (protein) LMLQWRRRHCCFAKMSWNAKRSLFRTHLMGVLSLVFLFAMFLFFNHHDWLPGRPGFKENPVTYTFRGFRSTKTETNQSSLRNIWKEVVPQTLRPQTATNSNNTELSPQGVTGLENTLSANGSIYNEKGTGHPNSYHFKYIINEPEKCQEKSPFLILLIAAEPGQIEARRAIRQTWGNETLAPGIQITRIFLLGISIKLNGYLQHAIQEESIQYHDIIQQEYLDTYYNLTIKTLMGMNWVATYCPHTPYVMKTDSDMFVNTEYLIHKLLKPDLPPRHNYFTGYLMRGYAPNRNKDSKWYMPPDLYPSERYPVFCSGTGYVFSGDLAEKIFKVSLGIRRLHLEDVYVGICLAKLRVDPVPPPNEFVFNHWRVSYSSCKYSHLITSHQFQPSELIKYWNHLQQNKHNACVNAAKEKAGRYRHRKLH,glycan array binding signal (z-score),[1],-0.962
same,glycan array binding signal (z-score),[2],0.288
same,glycan array binding signal (z-score),[3],0.06
same,glycan array binding signal (z-score),[4],-0.723
same,glycan array binding signal (z-score),[5],-0.113
same,glycan array binding signal (z-score),Gal(b1-4)Gal,-0.869
same,glycan array binding signal (z-score),[6],-1.07
same,glycan array binding signal (z-score),[7],-0.715
same,glycan array binding signal (z-score),Gal(b1-4)Glc,-0.279
same,glycan array binding signal (z-score),Gal(b1-4)Glc6S,0.586
same,glycan array binding signal (z-score),Gal(b1-4)GlcNAc,0.882
same,glycan array binding signal (z-score),[8],0.093
same,glycan array binding signal (z-score),Gal(b1-4)GlcNAc(b1-2)Man,0.209
same,glycan array binding signal (z-score),[9],-0.898
same,glycan array binding signal (z-score),[10],-0.8
same,glycan array binding signal (z-score),[11],0.541
same,glycan array binding signal (z-score),[12],1.2
same,glycan array binding signal (z-score),[13],-0.425
same,glycan array binding signal (z-score),[14],-0.763
same,glycan array binding signal (z-score),[15],-0.363
same,glycan array binding signal (z-score),[16],0.177
same,glycan array binding signal (z-score),[17],0.051
same,glycan array binding signal (z-score),[18],-0.128
same,glycan array binding signal (z-score),[19],-0.953
same,glycan array binding signal (z-score),[20],-0.941
same,glycan array binding signal (z-score),[21],-0.929
same,glycan array binding signal (z-score),[22],-0.433
same,glycan array binding signal (z-score),[23],0.352
same,glycan array binding signal (z-score),[24],-0.761
same,glycan array binding signal (z-score),[25],-0.609
same,glycan array binding signal (z-score),[26],-0.839
same,glycan array binding signal (z-score),[27],-0.758
same,glycan array binding signal (z-score),[28],0.197
same,glycan array binding signal (z-score),[29],-0.757
same,glycan array binding signal (z-score),[30],-0.447
same,glycan array binding signal (z-score),[31],0.439
same,glycan array binding signal (z-score),[32],-0.611
same,glycan array binding signal (z-score),[33],-0.476

# In another format: results already given
binder | measurement | setting | value
B3GalT2 (Rattus norvegicus) (protein) LMLQWRRRHCCFAKMSWNAKRSLFRTHLMGVLSLVFLFAMFLFFNHHDWLPGRPGFKENPVTYTFRGFRSTKTETNQSSLRNIWKEVVPQTLRPQTATNSNNTELSPQGVTGLENTLSANGSIYNEKGTGHPNSYHFKYIINEPEKCQEKSPFLILLIAAEPGQIEARRAIRQTWGNETLAPGIQITRIFLLGISIKLNGYLQHAIQEESIQYHDIIQQEYLDTYYNLTIKTLMGMNWVATYCPHTPYVMKTDSDMFVNTEYLIHKLLKPDLPPRHNYFTGYLMRGYAPNRNKDSKWYMPPDLYPSERYPVFCSGTGYVFSGDLAEKIFKVSLGIRRLHLEDVYVGICLAKLRVDPVPPPNEFVFNHWRVSYSSCKYSHLITSHQFQPSELIKYWNHLQQNKHNACVNAAKEKAGRYRHRKLH | glycan array binding signal (z-score) | [18] | -0.128
same | glycan array binding signal (z-score) | [30] | -0.447
